Measured values taken from PMC4303145.
These are yes or no findings as the source states them, for the method shown. Binding seen in cells or lysates may run through a third protein.

By UniProt entry, the sequences of proteins in these tests, tags left out.
UniProt Q8TED9: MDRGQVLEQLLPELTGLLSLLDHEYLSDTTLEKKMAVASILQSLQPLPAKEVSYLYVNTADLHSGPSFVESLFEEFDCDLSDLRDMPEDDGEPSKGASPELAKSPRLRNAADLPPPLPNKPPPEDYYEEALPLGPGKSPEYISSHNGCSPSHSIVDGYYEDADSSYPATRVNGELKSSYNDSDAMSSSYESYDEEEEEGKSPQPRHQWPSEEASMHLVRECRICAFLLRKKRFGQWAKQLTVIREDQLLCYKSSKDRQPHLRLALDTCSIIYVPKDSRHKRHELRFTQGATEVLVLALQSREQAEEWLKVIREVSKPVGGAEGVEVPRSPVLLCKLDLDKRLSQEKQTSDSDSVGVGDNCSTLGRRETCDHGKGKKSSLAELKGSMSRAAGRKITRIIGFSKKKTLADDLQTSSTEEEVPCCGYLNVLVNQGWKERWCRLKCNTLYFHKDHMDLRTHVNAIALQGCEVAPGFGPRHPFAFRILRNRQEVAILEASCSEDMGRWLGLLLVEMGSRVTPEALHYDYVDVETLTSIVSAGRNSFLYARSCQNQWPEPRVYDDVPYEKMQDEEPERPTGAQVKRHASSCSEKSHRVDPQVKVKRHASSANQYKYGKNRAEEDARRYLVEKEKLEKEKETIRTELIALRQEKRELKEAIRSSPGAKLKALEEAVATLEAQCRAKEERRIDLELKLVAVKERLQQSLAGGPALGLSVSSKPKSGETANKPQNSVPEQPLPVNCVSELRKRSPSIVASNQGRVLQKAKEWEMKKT

Experiments:
[1] = target: endogenous AFAP1L1 (human (endogenous in LoVo)), Q8TED9; assay: co-IP; LoVo whole cell lysates, endogenous proteins; immunoprecipitated with the anti-AFAP1L1 Ab, immunoblotted with Abs against vinculin or other invadopodia or focal adhesion proteins; settings: remark: other sources report otherwise
[2] = target: endogenous AFAP1L1 (human (endogenous in LoVo)) (UniProt Q8TED9); assay: as above

B1: endogenous cortactin, Q14247 1-550 (protein)
chain: MWKASAGHAVSIAQDDAGADDWETDPDFVNDVSEKEQRWGAKTVQGSGHQEHINIHKLRENVFQEHQTLKEKELETGPKASHGYGGKFGVEQDRMDKSAVGHEYQSKLSKHCSQVDSVRGFGGKFGVQMDRVDQSAVGFEYQGKTEKHASQKDYSSGFGGKYGVQADRVDKSAVGFDYQGKTEKHESQRDYSKGFGGKYGIDKDKVDKSAVGFEYQGKTEKHESQKDYVKGFGGKFGVQTDRQDKCALGWDHQEKLQLHESQKDYKTGFGGKFGVQSERQDSAAVGFDYKEKLAKHESQQDYSKGFGGKYGVQKDRMDKNASTFEDVTQVSSAYQKTVPVEAVTSKTSNIRANFENLAKEKEQEDRRKAEAERAQRMAKERQEQEEARRKLEEQARAKTQTPPVSPAPQPTEERLPSSPVYEDAASFKAELSYRGPVSGTEPEPVYSMEAADYREASSQQGLAYATEAVYESAEAPGHYPAEDSTYDEYENDLGITAVALYDYQAAGDDEISFDPDDIITNIEMIDDGWWRGVCKGRYGLFPANYVELRQ
- binding [1]: no binding

B2: endogenous Tks5 (protein, UniProt Q5TCZ1 1-1133)
chain: MLAYCVQDATVVDVEKRRNPSKHYVYIINVTWSDSTSQTIYRRYSKFFDLQMQLLDKFPIEGGQKDPKQRIIPFLPGKILFRRSHIRDVAVKRLKPIDEYCRALVRLPPHISQCDEVFRFFEARPEDVNPPKEDYGSSKRKSVWLSSWAESPKKDVTGADATAEPMILEQYVVVSNYKKQENSELSLQAGEVVDVIEKNESGWWFVSTSEEQGWVPATYLEAQNGTRDDSDINTSKTGEVSKRRKAHLRRLDRRWTLGGMVNRQHSREEKYVTVQPYTSQSKDEIGFEKGVTVEVIRKNLEGWWYIRYLGKEGWAPASYLKKAKDDLPTRKKNLAGPVEIIGNIMEISNLLNKKASGDKETPPAEGEGHEAPIAKKEISLPILCNASNGSAVGVPDRTVSRLAQGSPAVARIAPQRAQISSPNLRTRPPPRRESSLGFQLPKPPEPPSVEVEYYTIAEFQSCISDGISFRGGQKAEVIDKNSGGWWYVQIGEKEGWAPASYIDKRKKPNLSRRTSTLTRPKVPPPAPPSKPKEAEEGPTGASESQDSPRKLKYEEPEYDIPAFGFDSEPELSEEPVEDRASGERRPAQPHRPSPASSLQRARFKVGESSEDVALEEETIYENEGFRPYAEDTLSARGSSGDSDSPGSSSLSLTRKNSPKSGSPKSSSLLKLKAEKNAQAEMGKNHSSASFSSSITINTTCCSSSSSSSSSLSKTSGDLKPRSASDAGIRGTPKVRAKKDADANAGLTSCPRAKPSVRPKPFLNRAESQSQEKMDISTLRRQLRPTGQLRGGLKGSKSEDSELPPQTASEAPSEGSRRSSSDLITLPATTPPCPTKKEWEGPATSYMTCSAYQKVQDSEISFPAGVEVQVLEKQESGWWYVRFGELEGWAPSHYLVLDENEQPDPSGKELDTVPAKGRQNEGKSDSLEKIERRVQALNTVNQSKKATPPIPSKPPGGFGKTSGTPAVKMRNGVRQVAVRPQSVFVSPPPKDNNLSCALRRNESLTATDGLRGVRRNSSFSTARSAAAEAKGRLAERAASQGSDSPLLPAQRNSIPVSPVRPKPIEKSQFIHNNLKDVYVSIADYEGDEETAGFQEGVSMEVLERNPNGWWYCQILDGVKPFKGWVPSNYLEKKN
- binding [2]: no binding

B3: endogenous p130Cas (protein, UniProt P56945 1-870)
chain: MNHLNVLAKALYDNVAESPDELSFRKGDIMTVLEQDTQGLDGWWLCSLHGRQGIVPGNRLKILVGMYDKKPAGPGPGPPATPAQPQPGLHAPAPPASQYTPMLPNTYQPQPDSVYLVPTPSKAQQGLYQVPGPSPQFQSPPAKQTSTFSKQTPHHPFPSPATDLYQVPPGPGGPAQDIYQVPPSAGMGHDIYQVPPSMDTRSWEGTKPPAKVVVPTRVGQGYVYEAAQPEQDEYDIPRHLLAPGPQDIYDVPPVRGLLPSQYGQEVYDTPPMAVKGPNGRDPLLEVYDVPPSVEKGLPPSNHHAVYDVPPSVSKDVPDGPLLREETYDVPPAFAKAKPFDPARTPLVLAAPPPDSPPAEDVYDVPPPAPDLYDVPPGLRRPGPGTLYDVPRERVLPPEVADGGVVDSGVYAVPPPAEREAPAEGKRLSASSTGSTRSSQSASSLEVAGPGREPLELEVAVEALARLQQGVSATVAHLLDLAGSAGATGSWRSPSEPQEPLVQDLQAAVAAVQSAVHELLEFARSAVGNAAHTSDRALHAKLSRQLQKMEDVHQTLVAHGQALDAGRGGSGATLEDLDRLVACSRAVPEDAKQLASFLHGNASLLFRRTKATAPGPEGGGTLHPNPTDKTSSIQSRPLPSPPKFTSQDSPDGQYENSEGGWMEDYDYVHLQGKEEFEKTQKELLEKGSITRQGKSQLELQQLKQFERLEQEVSRPIDHDLANWTPAQPLAPGRTGGLGPSDRQLLLFYLEQCEANLTTLTNAVDAFFTAVATNQPPKIFVAHSKFVILSAHKLVFIGDTLSRQAKAADVRSQVTHYSNLLCDLLRGIVATTKAAALQYPSPSAAQDMVERVKELGHSTQQFRRVLGQLAAA
- binding [2]: no binding
